These are yes or no findings as the source states them, for the method shown. Binding seen in cells or lysates may run through a third protein. Some entries that bind do so weakly or less than the wild type. Where a sequence is shown, tags or fusion partners need not be part of it.
Target: T1, Enp1-C-HTP (S. cerevisiae) (UniProt P38333)
T1 sequence: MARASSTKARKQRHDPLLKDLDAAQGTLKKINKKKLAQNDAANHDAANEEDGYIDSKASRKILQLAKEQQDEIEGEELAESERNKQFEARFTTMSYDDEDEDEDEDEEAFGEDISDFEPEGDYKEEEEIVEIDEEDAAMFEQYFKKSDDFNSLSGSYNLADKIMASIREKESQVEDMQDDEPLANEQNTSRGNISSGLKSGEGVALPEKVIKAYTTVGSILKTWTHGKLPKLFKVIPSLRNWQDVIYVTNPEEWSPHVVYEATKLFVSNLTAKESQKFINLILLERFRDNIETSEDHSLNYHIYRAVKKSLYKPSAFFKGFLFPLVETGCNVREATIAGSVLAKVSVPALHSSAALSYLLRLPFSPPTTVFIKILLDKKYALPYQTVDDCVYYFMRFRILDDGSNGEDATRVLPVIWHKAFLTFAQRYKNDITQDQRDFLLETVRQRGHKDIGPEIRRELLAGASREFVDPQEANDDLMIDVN
Assay: pull-down; extracts of cells expressing HA-Rok1 and Enp1-HTP incubated with IgG sepharose (one-step purification of Enp1-HTP pre-ribosomal complexes); eluate analysed by SDS-PAGE and Western blotting (anti-HA, anti-PAP, anti-GAPDH)

B1: HA-tagged Rok1 (enzyme, UniProt P45818 1-564)
chain: MDIFRVLTRGASVKKESGPKAKAADYSVINGNDENHKEDNNESQIVKELDFFRNKRIISKVEDDREKTTENDSPNKEEKSGNDDGLIKPVITNTVEASALRKSYKGNVSGIDIPLPIGSFEDLISRFSFDKRLLNNLIENGFTEPTPIQCECIPVALNNRDVLACGPTGSGKTLAFLIPLVQQIIDDKQTAGLKGLIISPTKELANQIFIECFKLSYKIFLEKKRPLQVALLSKSLGAKLKNKVVSDKKYDIIISTPLRLIDVVKNEALDLSKVKHLIFDEADKLFDKTFVEQSDDILSACREPSLRKAMFSATIPSNVEEIAQSIMMDPVRVIIGHKEAANTNIEQKLIFCGNEEGKLIAIRQLVQEGEFKPPIIIFLESITRAKALYHELMYDRINVDVIHAERTALQRDRIIERFKTGELWCLICTDVLARGIDFKGVNLVINYDVPGSSQAYVHRIGRTGRGGRSGKAITFYTKQDSVAIKPIINVMKQSGCEVSEWMDKMAKMTRKEKESIKNGKAHKERKQITTVPKMDKAKRRRQQEMIAASKRRKNEELSKKHFSK
B1 was tested, and the binding was “binds”.

Source: article PMC4105744
